The supplement of paper PMC6411743
± gives the standard deviation of the averaged measurements. Only a part is listed here, and it is no random draw.

Sequences of proteins named here, by UniProt entry; tags and fusion partners are left off. A change or cut given only in a name is not applied to a line headed by its entry.
UniProt P49959: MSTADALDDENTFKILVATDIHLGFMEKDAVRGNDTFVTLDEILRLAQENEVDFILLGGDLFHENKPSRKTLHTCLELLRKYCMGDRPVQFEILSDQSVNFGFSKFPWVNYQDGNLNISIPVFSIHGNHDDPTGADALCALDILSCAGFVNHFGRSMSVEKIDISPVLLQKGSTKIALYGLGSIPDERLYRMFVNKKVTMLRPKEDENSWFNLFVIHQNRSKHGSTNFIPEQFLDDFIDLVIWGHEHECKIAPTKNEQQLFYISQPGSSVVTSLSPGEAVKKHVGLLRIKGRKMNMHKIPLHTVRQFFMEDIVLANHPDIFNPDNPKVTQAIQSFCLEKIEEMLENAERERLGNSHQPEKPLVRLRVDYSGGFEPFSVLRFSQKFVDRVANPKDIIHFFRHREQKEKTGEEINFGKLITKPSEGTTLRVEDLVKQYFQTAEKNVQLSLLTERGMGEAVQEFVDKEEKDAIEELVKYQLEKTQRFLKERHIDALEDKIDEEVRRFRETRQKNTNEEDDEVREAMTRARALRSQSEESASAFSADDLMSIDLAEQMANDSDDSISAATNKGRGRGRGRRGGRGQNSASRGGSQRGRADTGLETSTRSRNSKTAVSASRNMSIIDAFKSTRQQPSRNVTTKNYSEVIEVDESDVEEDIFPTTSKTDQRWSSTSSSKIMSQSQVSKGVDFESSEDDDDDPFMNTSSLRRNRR
UniProt P61923: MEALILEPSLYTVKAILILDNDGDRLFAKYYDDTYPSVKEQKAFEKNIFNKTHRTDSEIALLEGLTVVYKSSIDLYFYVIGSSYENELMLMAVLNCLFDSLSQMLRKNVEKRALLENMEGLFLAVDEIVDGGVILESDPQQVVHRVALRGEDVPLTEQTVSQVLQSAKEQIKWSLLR
UniProt O43674, whole entry: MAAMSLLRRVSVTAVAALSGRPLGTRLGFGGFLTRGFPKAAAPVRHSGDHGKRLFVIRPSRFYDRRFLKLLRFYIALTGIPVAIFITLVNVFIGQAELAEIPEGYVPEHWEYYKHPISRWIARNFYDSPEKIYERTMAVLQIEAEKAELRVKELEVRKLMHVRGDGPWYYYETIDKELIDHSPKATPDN
UniProt Q13435: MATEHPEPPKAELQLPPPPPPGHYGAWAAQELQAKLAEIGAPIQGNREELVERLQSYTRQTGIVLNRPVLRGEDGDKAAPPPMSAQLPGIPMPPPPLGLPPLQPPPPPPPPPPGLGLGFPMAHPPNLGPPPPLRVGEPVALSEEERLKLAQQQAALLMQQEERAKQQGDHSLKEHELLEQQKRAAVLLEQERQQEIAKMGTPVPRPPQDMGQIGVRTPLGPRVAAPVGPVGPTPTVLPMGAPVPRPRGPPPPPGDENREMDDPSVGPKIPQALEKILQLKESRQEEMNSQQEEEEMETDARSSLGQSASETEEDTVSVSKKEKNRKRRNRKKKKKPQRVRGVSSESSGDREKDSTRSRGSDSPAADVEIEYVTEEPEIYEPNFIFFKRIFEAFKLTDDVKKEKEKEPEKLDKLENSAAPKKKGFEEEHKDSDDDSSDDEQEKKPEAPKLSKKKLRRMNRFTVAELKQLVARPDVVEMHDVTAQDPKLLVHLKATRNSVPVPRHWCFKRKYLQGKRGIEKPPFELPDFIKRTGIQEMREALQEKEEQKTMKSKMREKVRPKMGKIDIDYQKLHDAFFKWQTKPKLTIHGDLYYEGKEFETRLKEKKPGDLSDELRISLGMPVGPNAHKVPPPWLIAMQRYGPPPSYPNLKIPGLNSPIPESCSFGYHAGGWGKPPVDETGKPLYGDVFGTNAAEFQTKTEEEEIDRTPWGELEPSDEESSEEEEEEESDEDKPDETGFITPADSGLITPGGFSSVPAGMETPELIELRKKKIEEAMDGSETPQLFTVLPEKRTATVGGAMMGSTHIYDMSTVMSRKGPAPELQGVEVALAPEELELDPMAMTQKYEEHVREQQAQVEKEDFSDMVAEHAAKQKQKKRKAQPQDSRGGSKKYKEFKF
UniProt Q9Y4C1: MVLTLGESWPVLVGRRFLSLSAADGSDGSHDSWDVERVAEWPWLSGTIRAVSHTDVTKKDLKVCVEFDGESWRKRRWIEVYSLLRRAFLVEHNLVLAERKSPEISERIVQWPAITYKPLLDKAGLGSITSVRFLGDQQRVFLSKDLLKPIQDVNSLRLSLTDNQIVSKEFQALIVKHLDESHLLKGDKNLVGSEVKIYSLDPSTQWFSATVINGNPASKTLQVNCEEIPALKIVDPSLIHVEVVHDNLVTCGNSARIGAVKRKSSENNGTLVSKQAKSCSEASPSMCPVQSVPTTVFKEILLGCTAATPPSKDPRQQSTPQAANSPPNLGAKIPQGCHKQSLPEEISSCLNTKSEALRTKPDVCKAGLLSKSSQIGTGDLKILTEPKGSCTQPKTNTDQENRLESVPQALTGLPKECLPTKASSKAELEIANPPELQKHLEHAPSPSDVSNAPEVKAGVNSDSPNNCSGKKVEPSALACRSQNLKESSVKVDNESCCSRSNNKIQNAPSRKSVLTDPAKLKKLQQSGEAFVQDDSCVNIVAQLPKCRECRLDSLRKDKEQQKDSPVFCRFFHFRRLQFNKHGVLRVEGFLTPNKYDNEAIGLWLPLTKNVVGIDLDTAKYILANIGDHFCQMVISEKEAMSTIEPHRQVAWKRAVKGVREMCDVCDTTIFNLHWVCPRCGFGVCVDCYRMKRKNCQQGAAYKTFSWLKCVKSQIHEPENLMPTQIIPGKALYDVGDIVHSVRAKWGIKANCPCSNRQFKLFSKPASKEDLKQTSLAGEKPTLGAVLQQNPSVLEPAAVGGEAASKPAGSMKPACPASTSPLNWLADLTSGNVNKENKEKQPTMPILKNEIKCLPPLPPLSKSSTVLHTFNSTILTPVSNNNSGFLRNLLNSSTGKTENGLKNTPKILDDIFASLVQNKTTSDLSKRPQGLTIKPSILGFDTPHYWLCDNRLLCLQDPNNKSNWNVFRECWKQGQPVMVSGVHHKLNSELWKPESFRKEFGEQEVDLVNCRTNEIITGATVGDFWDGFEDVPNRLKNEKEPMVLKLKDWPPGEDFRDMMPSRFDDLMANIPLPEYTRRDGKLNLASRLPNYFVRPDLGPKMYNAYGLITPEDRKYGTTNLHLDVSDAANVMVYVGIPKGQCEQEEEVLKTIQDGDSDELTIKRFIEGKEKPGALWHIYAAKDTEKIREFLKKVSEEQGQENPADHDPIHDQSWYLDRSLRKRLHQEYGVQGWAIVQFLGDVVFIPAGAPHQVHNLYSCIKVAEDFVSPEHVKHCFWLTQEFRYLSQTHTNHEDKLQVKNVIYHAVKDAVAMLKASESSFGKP
UniProt Q5HYJ3: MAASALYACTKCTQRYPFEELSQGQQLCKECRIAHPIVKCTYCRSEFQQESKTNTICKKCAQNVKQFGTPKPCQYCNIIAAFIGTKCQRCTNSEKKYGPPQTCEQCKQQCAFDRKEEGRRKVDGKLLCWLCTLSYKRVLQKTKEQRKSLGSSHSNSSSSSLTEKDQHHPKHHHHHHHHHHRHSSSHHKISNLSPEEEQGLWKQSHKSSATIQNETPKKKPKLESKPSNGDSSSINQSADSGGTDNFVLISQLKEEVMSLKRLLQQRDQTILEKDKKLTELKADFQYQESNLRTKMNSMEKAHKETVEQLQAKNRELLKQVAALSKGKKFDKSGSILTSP
UniProt Q13586, whole entry: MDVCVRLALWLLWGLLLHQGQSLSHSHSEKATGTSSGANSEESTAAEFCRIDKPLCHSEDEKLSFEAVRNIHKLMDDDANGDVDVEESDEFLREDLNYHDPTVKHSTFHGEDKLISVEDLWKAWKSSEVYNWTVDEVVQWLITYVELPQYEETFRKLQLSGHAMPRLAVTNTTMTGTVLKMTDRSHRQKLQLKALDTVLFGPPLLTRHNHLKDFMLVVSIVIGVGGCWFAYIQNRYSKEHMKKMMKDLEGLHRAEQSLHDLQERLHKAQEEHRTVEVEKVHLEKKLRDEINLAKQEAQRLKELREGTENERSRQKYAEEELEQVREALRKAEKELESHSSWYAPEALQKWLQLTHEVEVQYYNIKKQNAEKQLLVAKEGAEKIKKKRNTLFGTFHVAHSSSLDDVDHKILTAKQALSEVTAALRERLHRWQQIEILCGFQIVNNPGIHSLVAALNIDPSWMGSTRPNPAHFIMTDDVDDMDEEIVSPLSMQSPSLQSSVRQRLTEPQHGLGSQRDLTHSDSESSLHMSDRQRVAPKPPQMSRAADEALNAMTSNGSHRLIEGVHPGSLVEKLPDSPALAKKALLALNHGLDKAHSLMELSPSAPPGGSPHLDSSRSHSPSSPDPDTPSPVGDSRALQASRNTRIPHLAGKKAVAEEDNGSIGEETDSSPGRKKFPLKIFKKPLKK
UniProt O75439: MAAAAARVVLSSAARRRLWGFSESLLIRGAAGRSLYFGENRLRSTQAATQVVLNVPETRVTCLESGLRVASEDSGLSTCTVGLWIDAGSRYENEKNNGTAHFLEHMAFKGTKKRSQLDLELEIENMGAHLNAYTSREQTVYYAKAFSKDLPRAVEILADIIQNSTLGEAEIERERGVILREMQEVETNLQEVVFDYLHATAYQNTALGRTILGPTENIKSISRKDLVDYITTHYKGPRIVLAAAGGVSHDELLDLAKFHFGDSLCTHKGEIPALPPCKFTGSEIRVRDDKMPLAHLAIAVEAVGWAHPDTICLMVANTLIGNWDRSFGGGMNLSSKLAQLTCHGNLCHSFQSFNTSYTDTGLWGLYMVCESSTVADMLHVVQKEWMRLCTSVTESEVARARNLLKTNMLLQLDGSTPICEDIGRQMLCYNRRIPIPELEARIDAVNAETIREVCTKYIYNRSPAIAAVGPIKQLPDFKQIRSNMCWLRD
UniProt P63027, whole entry, looked up: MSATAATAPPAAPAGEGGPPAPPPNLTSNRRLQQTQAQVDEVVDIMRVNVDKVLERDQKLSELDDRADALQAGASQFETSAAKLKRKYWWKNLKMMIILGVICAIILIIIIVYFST
UniProt Q16637, whole entry: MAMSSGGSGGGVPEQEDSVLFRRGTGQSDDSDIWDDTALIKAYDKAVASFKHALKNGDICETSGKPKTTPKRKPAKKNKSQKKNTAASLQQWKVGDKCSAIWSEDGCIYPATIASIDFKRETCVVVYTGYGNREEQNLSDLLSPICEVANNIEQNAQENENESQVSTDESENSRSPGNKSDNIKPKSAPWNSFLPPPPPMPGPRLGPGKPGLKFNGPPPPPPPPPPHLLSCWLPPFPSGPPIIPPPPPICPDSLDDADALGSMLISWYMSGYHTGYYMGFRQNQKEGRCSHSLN
UniProt Q9Y467: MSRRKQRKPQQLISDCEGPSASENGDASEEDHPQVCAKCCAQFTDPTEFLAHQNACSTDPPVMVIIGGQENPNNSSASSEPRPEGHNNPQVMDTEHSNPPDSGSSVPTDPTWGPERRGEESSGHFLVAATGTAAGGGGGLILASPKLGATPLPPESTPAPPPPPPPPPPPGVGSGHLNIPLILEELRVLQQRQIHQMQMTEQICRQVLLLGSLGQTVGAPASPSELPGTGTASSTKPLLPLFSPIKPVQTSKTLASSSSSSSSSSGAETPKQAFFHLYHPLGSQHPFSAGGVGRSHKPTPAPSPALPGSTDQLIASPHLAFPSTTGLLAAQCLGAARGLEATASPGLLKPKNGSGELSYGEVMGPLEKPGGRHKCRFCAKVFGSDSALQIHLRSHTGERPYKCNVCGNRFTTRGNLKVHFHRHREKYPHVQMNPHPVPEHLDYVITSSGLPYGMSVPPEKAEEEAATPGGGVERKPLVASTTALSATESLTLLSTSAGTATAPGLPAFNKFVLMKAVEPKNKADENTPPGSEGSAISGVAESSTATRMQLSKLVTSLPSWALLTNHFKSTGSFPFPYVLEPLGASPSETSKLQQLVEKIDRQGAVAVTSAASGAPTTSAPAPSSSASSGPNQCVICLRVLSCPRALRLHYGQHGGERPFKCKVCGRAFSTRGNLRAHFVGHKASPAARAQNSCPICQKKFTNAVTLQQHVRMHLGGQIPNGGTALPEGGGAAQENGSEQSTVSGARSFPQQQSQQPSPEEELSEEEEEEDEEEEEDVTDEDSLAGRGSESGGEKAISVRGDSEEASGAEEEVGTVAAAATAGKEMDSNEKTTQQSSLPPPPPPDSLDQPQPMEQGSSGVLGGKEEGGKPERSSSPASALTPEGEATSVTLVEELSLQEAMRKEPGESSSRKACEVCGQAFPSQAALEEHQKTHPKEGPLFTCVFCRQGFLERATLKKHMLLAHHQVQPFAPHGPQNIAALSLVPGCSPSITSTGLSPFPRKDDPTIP
UniProt Q9Y587: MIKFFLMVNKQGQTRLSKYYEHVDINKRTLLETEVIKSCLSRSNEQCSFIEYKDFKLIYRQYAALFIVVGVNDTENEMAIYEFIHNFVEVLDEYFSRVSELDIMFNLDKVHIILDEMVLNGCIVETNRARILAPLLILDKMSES
UniProt O00193: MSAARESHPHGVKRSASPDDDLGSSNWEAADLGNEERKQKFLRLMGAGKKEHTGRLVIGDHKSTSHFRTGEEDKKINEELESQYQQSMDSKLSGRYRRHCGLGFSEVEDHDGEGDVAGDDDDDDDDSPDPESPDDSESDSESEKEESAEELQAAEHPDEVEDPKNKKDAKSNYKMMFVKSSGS

Compound: Nc1ncnc2c1ncn2[C@@H]1O[C@H](COP(=O)(O)OP(=O)(O)OP(=O)(O)O)[C@@H](O)[C@H]1O [adenosine triphosphate]
Assay: NP40-soluble protein abundance relative to vehicle (solubility fold change) (ratio); higher = more soluble protein in presence of ATP
Method in brief: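 Data come from three independent experiments in which Dounce-homogenised Jurkat crude lysate was treated at eight concentrations from 0.1 to 10 mM. Treatment ran 10 min at room temperature and then 3 min at 37 °C, after which 0.8% NP40 and benzonase were added for 60 min at 4 °C before ultracentrifugation. The supernatant underwent TMT labelling and LC-MS/MS, and vsn-normalised intensities were expressed as fold change against the detergent-processed vehicle in each replicate.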

| Target | NP40-soluble protein abundance (concentration: 1mM) | NP40-soluble protein abundance (concentration: 2mM) | NP40-soluble protein abundance (concentration: 4mM) | NP40-soluble protein abundance (concentration: 6mM) | NP40-soluble protein abundance (concentration: 8mM) | NP40-soluble protein abundance (concentration: 10mM) |
| --- | --- | --- | --- | --- | --- | --- |
| E9PFI7 and related entries (UniProt Q8N3A8) | 1 ± 0.087 | 1.07 ± 0.13 | 1.18 ± 0.086 | 1.07 ± 0.14 | 1.04 ± 0.13 | 1.05 ± 0.059 |
| E9PJZ7 and related entries (UniProt Q13136) | 0.972 ± 0.065 | 0.967 ± 0.044 | 0.979 ± 0.017 | 1.01 ± 0.056 | 0.957 ± 0.03 | 0.971 ± 0.043 |
| E9PCD7 and related entries (UniProt Q9Y2E5) | 0.927 ± 0.063 | 0.922 ± 0.069 | 0.902 ± 0.072 | 0.883 ± 0.053 | 0.866 ± 0.048 | 0.887 ± 0.1 |
| F8W7U8 and related entries (UniProt P49959) | 1.01 ± 0.038 | 1.02 ± 0.027 | 1.02 ± 0.035 | 1.03 ± 0.025 | 1.02 ± 0.021 | 1.02 ± 0.032 |
| F8VVA7 and related entries (UniProt P61923) | 1.03 ± 0.1 | 1.01 ± 0.06 | 0.958 ± 0.046 | 1.046 ± 0.0071 | 0.965 ± 0.067 | 0.906 ± 0.038 |
| E5RK69 and related entries (UniProt P08133) | 0.955 ± 0.042 | 0.937 ± 0.036 | 0.904 ± 0.03 | 0.919 ± 0.064 | 0.919 ± 0.033 | 0.917 ± 0.057 |
| E7EWP0 and related entries (UniProt O43674) | 0.892 ± 0.029 | 0.891 ± 0.02 | 0.875 ± 0.049 | 0.858 ± 0.025 | 0.891 ± 0.015 | 0.853 ± 0.11 |
| F2Z3D9 and related entries (UniProt O43709) | 1.034 ± 0.0096 | 1.06 ± 0.036 | 1.14 ± 0.055 | 1.07 ± 0.057 | 1.16 ± 0.047 | 1.22 ± 0.033 |
| E9PJ04 and related entries (UniProt Q13435) | 1.05 ± 0.075 | 1.04 ± 0.054 | 1.05 ± 0.068 | 1.15 ± 0.098 | 1.09 ± 0.054 | 1.1 ± 0.053 |
| G3V1S4 and related entries (UniProt Q9Y324) | 1.2 ± 0.015 | 1.15 ± 0.094 | 1.28 ± 0.069 | 1.34 ± 0.044 | 1.48 ± 0.02 | 1.51 ± 0.11 |
| E9PHV5 and related entries (UniProt P28290) | 1.08 ± 0.22 | 1.16 ± 0.083 | 1.15 ± 0.054 | 1.16 ± 0.15 | 1.12 ± 0.2 | 1.23 ± 0.12 |
| F5H070 and related entries (UniProt Q9Y4C1) | 0.982 ± 0.031 | 0.991 ± 0.027 | 0.989 ± 0.031 | 0.987 ± 0.03 | 0.965 ± 0.03 | 0.996 ± 0.039 |
| UniProt G3V599 | 0.965 ± 0.034 | 0.934 ± 0.039 | 0.946 ± 0.037 | 0.981 ± 0.056 | 0.97 ± 0.046 | 0.936 ± 0.054 |
| F5GX09 and related entries (UniProt Q5HYJ3) | 0.884 ± 0.043 | 0.911 ± 0.012 | 0.923 ± 0.0053 | 0.969 ± 0.041 | 0.9096 ± 0.0071 | 0.96 ± 0.028 |
| G3V5T9 and related entries (UniProt P24941) | 0.98 ± 0.062 | 0.968 ± 0.044 | 0.968 ± 0.064 | 0.906 ± 0.1 | 0.96 ± 0.049 | 0.945 ± 0.031 |
| G0XQ39 and related entries (UniProt Q13586) | 0.995 ± 0.047 | 0.984 ± 0.042 | 0.966 ± 0.026 | 1 ± 0.017 | 0.9554 ± 0.0038 | 0.966 ± 0.017 |
| F5H5I6 and related entries (UniProt Q12849) | 0.99 ± 0.028 | 0.994 ± 0.0096 | 0.994 ± 0.013 | 1.01 ± 0.028 | 0.97 ± 0.023 | 0.961 ± 0.011 |
| F8WEA6 and related entries (UniProt O75439) | 0.972 ± 0.048 | 0.989 ± 0.038 | 0.963 ± 0.05 | 0.983 ± 0.085 | 0.968 ± 0.062 | 0.957 ± 0.067 |
| F5GZS6 and related entries (UniProt P08195) | 0.933 ± 0.056 | 0.922 ± 0.023 | 0.902 ± 0.054 | 0.924 ± 0.034 | 0.883 ± 0.022 | 0.8795 ± 0.0041 |
| F6S8M0 and related entries (UniProt P15586) | 0.948 ± 0.02 | 0.934 ± 0.039 | 0.914 ± 0.028 | 0.983 ± 0.045 | 0.909 ± 0.026 | 0.858 ± 0.07 |
| F8VU90 and related entries (UniProt Q9NYL4) | 0.92 ± 0.044 | 0.837 ± 0.073 | 0.817 ± 0.014 | 0.805 ± 0.052 | 0.874 ± 0.097 | 0.845 ± 0.099 |
| E7EQT4 and related entries (UniProt Q9UKV3) | 1.03 ± 0.079 | 1.01 ± 0.072 | 0.999 ± 0.076 | 1.04 ± 0.11 | 0.946 ± 0.072 | 1.01 ± 0.062 |
| F8WCA0 and related entries (UniProt P63027+J3QRU4+L7N2F9+F8WCA0) | 0.959 ± 0.14 | 0.91 ± 0.069 | 1.04 ± 0.11 | 0.894 ± 0.066 | 0.857 ± 0.12 | 0.805 ± 0.15 |
| E7EQZ4 and related entries (UniProt Q16637) | 0.924 ± 0.038 | 0.959 ± 0.12 | 0.923 ± 0.14 | 0.978 ± 0.24 | 0.96 ± 0.18 | 0.994 ± 0.12 |
| E7EW59 and related entries (UniProt Q9Y467) | 1.06 ± 0.046 | 1.05 ± 0.059 | 1.03 ± 0.11 | 0.961 ± 0.013 | 0.9968 ± 0.0068 | 1.01 ± 0.064 |
| E9PL24 and related entries (UniProt Q5VU43) | 0.985 ± 0.043 | 0.942 ± 0.032 | 0.978 ± 0.05 | 0.951 ± 0.12 | 0.939 ± 0.056 | 0.935 ± 0.049 |
| F8W1T6 and related entries (UniProt Q15434) | 0.843 ± 0.082 | 0.846 ± 0.089 | 0.881 ± 0.043 | 0.904 ± 0.059 | 0.876 ± 0.089 | 0.929 ± 0.084 |
| G3V3X7 and related entries (UniProt Q9Y587) | 1.15 ± 0.12 | 1.08 ± 0.044 | 1.04 ± 0.11 | 1.01 ± 0.12 | 1.06 ± 0.094 | 1.05 ± 0.13 |
| F5GZ97 and related entries (UniProt Q9Y3C0) | 0.927 ± 0.07 | 0.955 ± 0.012 | 0.924 ± 0.055 | 0.967 ± 0.037 | 0.886 ± 0.05 | 0.846 ± 0.066 |
| E9PM92 and related entries (UniProt O00193+E9PM92) | 0.97 ± 0.28 | 0.998 ± 0.054 | 0.971 ± 0.053 | 1.04 ± 0.2 | 0.984 ± 0.015 | 0.83 ± 0.041 |

A second format for part of the listing above:
G3V5T9 and related entries (UniProt P24941)
  NP40-soluble protein abundance (concentration: 1mM): 0.98 ± 0.062; NP40-soluble protein abundance (concentration: 2mM): 0.968 ± 0.044; NP40-soluble protein abundance (concentration: 4mM): 0.968 ± 0.064; NP40-soluble protein abundance (concentration: 6mM): 0.906 ± 0.1; NP40-soluble protein abundance (concentration: 8mM): 0.96 ± 0.049; NP40-soluble protein abundance (concentration: 10mM): 0.945 ± 0.031
G0XQ39 and related entries (UniProt Q13586)
  NP40-soluble protein abundance (concentration: 1mM): 0.995 ± 0.047; NP40-soluble protein abundance (concentration: 2mM): 0.984 ± 0.042; NP40-soluble protein abundance (concentration: 4mM): 0.966 ± 0.026; NP40-soluble protein abundance (concentration: 6mM): 1 ± 0.017; NP40-soluble protein abundance (concentration: 8mM): 0.9554 ± 0.0038; NP40-soluble protein abundance (concentration: 10mM): 0.966 ± 0.017
